Earlier results on one compound are cited in patent publication US8278437B2, “Hydroxypropyl-sulfobutyl-beta-cyclodextrin, the preparation method, the analytical method, and the pharmacutical application thereof” (priority 2005, dated 2012).

Where two headings read alike, the source gives them in different places.

The test system of this data set is mouse. The conditions noted are these: cited from earlier work.

`CC(=O)N(C)C` [DMA]: the LD50 (as a rule, the dose at which mortality reaches 50%) is, setting by setting: (Oral) 4620 mg/kg; (intraperitoneal injection) 3200 mg/kg; (intravenous injection) 3020 mg/kg.
